## Screening data, single-dose tests

By UniProt entry, the sequences of proteins in these tests, tags left out. Residues count along the entry.
UniProt I6X8D2, whole entry: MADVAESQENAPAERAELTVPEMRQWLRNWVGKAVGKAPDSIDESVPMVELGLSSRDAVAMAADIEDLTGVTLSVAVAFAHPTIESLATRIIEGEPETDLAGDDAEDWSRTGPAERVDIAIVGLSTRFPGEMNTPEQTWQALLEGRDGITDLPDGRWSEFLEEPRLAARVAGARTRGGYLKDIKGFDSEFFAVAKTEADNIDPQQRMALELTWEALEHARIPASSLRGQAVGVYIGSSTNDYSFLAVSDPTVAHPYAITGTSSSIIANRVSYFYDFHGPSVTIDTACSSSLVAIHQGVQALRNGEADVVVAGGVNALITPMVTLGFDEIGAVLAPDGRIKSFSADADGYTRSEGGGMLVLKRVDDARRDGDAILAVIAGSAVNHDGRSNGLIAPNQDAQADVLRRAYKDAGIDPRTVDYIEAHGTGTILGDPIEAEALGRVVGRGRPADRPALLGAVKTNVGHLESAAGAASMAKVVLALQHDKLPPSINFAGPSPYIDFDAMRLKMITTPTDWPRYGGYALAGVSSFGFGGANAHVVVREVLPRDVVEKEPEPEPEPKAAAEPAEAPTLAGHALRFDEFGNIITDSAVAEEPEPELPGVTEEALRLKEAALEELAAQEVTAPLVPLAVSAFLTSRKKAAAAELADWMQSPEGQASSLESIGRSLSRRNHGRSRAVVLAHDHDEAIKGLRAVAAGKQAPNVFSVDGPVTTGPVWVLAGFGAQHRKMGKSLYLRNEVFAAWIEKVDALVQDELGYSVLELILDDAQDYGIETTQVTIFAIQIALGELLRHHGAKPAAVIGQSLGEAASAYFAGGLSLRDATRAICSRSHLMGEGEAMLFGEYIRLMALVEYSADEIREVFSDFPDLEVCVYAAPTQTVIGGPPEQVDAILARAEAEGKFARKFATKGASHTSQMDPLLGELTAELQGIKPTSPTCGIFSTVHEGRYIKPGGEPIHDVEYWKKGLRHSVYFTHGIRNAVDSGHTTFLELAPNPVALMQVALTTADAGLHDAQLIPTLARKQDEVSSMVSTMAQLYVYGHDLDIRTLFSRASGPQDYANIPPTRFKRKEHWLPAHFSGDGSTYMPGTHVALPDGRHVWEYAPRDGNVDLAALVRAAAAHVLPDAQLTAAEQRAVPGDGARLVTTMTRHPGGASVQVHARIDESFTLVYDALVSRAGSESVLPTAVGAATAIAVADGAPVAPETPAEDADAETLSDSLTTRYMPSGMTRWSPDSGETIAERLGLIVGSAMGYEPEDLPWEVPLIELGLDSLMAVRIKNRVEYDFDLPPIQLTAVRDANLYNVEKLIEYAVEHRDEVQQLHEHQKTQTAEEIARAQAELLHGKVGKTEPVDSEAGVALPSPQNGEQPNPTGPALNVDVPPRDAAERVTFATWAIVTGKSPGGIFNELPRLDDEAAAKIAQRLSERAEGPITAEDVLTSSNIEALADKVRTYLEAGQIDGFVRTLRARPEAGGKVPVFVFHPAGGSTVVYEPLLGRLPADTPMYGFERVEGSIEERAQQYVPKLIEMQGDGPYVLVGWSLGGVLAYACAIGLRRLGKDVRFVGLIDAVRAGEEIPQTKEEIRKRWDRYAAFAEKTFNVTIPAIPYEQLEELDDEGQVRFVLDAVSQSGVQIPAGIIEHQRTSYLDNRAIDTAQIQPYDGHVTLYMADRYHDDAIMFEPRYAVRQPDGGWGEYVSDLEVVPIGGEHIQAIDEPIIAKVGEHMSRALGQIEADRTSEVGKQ
UniProt Q8IDJ8, 1-583: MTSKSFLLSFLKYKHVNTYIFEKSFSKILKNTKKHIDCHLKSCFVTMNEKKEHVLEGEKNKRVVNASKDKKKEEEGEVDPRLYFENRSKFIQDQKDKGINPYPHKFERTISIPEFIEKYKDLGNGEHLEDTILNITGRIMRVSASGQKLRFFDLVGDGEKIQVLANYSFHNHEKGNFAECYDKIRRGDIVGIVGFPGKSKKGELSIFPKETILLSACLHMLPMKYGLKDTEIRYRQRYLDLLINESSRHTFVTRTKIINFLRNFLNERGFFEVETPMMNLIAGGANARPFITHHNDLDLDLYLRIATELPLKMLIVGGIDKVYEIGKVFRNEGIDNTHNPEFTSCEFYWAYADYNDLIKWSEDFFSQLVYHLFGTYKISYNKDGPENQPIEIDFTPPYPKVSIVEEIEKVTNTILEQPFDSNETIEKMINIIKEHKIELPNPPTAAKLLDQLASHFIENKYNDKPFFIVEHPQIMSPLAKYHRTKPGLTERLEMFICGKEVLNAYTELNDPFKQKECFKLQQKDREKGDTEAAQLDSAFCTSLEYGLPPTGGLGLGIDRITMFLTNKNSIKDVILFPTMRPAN
UniProt P9WNZ1, whole entry: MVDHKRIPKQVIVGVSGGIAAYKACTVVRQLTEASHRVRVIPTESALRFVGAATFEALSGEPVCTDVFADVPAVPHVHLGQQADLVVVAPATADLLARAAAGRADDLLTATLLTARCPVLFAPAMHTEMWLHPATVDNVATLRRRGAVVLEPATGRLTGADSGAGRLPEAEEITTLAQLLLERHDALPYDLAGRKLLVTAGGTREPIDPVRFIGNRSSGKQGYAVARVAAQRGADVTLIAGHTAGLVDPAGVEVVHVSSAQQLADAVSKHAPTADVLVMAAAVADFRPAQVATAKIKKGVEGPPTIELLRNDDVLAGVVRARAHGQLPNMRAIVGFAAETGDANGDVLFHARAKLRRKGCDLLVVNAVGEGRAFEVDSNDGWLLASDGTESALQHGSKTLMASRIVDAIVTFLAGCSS

Measurements from “University of Dundee, Small-Polar-MMV Screening Library” (2021), ChEMBL document CHEMBL3988442.

Pks13 thioesterase: 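Polyketide synthase Pks13, Mycobacterium tuberculosis (UniProt I6X8D2). Enzyme assay of the thioesterase domain of polyketide synthase 13; the read-out is not stated. Compounds at 30 µM. Higher reads as stronger inhibition (inferred from which compounds were picked for retests). Size under these conditions: about 67,000 compounds, about 300 of them at 50% or above in at least one test.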
PfKRS1: 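Enzyme assay of the cytosolic lysyl-tRNA synthetase in 384-well plates, read by luminescence. Target: Lysine-tRNA ligase, Plasmodium falciparum 3D7 (UniProt Q8IDJ8). Concentration: 30 µM. Direction is inferred from only a few compounds that gave an IC50; most scored high, so higher reads as stronger inhibition. About 69,000 compounds were tested under these conditions; 0.071% (about 49) showed 50% or more at least once.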
CoaBC: 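Coenzyme A biosynthesis protein CoaBC, Mycobacterium tuberculosis (UniProt P9WNZ1). Enzyme assay of CoaBC with a phosphate dye (Biomol Green) read at 650 nm. Concentration: 30 µM. Higher reads as stronger inhibition, judged from the few compounds that gave an IC50. Most strong results did not repeat in a second test. About 67,000 compounds were tested under these conditions; 0.06% (about 40) showed 50% or more at least once.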

Results are given as percent effect. How 0% and 100% were set is not recorded. Most values in the screen are low, and negative values occur. This is an unselected part of the compounds tested. A dash means the value is not listed here; it may have been measured.

| # | compound | Pks13 thioesterase | PfKRS1 | CoaBC |
|---|---|---|---|---|
| 1 | `Cc1cccc(-c2noc(CN3CCCC3Cn3cccn3)n2)c1` (stereo not drawn) | 12.75 | 0.01196 | 8.996 |
| 2 | `CSCC(C)NCc1ccc2[nH]c(C)c(C)c2c1` (stereo not drawn) | -15.48 | -1.749 | 2.696 |
| 3 | `CS(=O)(=O)NC1CCN(C(=O)c2cc3ccccc3s2)C1` (stereo not drawn) | 13.52 | 1.499 | 4.423 |
| 4 | `CC(C)N1CCCC1c1cc(CCO)[nH]n1` (stereo not drawn) | 7.701 | -2.035 | -5.519 |
| 5 | `Cc1ccc(C2COCCN2C(=O)c2ccc(CN(C)C)cc2)o1` (stereo not drawn) | -4.885 | -0.3337 | 0.8929 |
| 6 | `Cc1ccc(CNCc2nnc3n2CC(C(F)(F)F)CC3)cc1` (stereo not drawn) | -42.14 | -1.767 | 10.57 |
| 7 | `COc1cc(CNC(=O)Nc2nnc(C3CC3)s2)ccc1O` | -27.45 | 2.399 | -4.224 |
| 8 | `Cc1noc(C)c1CCC(=O)N1CCCN(CC(N)=O)CC1` | -14.44 | 0.5143 | 5.957 |
| 9 | `CCN(C)C(=O)c1cc(-c2cn(C(C)C)cn2)n2ccccc12` | 17.97 | 5.034 | - |
| 10 | `CCC(C)(C)C(=O)Nc1ccc2ccn(CC(=O)NC)c2c1` | -19.6 | 1.729 | 2.992 |
| 11 | `COCC1CN(C(=O)Cc2cccs2)Cc2c1cnn2C` (stereo not drawn) | -20.67 | -0.7349 | 4.079 |
| 12 | `O=C(NCC1CC1)C1CCC2(CCN(C(=O)c3ccccn3)CC2)O1` (stereo not drawn) | -16.01 | -1.824 | -3.628 |
| 13 | `Cc1cc(C(C)NC(=O)N2CCC(n3cncn3)CC2)c(C)s1` (stereo not drawn) | -35.44 | 11.08 | 1.285 |
| 14 | `COCCC(=O)N[C@H]1CN(c2nc(C)c3c(n2)CCCC3)C[C@@H]1C1CC1` | -5.195 | 0.6946 | 5.897 |
| 15 | `Cn1ncc2c(N3CCCN(C(=O)c4ccsc4)CC3)ncnc21` | 12.56 | 3.085 | 11.18 |
| 16 | `COC(=O)c1ccoc1CN(C)CC(=O)NC1CC1` | -24.16 | 4.593 | -0.6472 |
| 17 | `CC(CO)(NC(=O)Nc1nnc(C(F)F)s1)C1CC1` (stereo not drawn) | -24.07 | 0.3727 | 7.258 |
| 18 | `O=C(COc1ccccc1)NCC1CC1` | -4.148 | -3.796 | -1.339 |
| 19 | `COc1cccc(OCc2nnc3n2N=C(C(C)(C)C)CS3)c1` | -6.876 | 5.522 | 7.57 |
| 20 | `O=C(CO)N1CCN(S(=O)(=O)CCCF)CC1` | 3.445 | -1.243 | 10.07 |
| 21 | `CCOc1ccccc1OCCN(C)Cc1ncnn1CC` | -5.586 | -3.658 | 1.442 |
| 22 | `Cc1nc(CN2CCN(C(=O)c3ccn(C)c(=O)c3)CC2)cs1` | -7.896 | 2.734 | 5.483 |
| 23 | `Cc1cnn(C2CN(CCOc3cccc(C#N)c3)C2)c1` | 0.6388 | -0.09889 | 7.17 |
| 24 | `Cc1ccc(C(=O)N(C2CC2)C2CC(=O)NC2=O)cc1F` (stereo not drawn) | -4.302 | 0.763 | -0.2625 |
| 25 | `COCCN(Cc1ccccn1)C(=O)Nc1cccnc1N1CCCC1` | 6.511 | 3.961 | 1.72 |
| 26 | `Cc1cccnc1N1CCN(C(=O)CCc2cn3ccccc3n2)CC1` | -14.37 | 2.588 | 0.2457 |
| 27 | `CCc1nc(CN(C)CC(=O)NC(C)C)cs1` | -4.99 | -0.4826 | -0.3632 |
| 28 | `Cn1cccc1C(=O)N1CCC2(CC1)CN(c1cncnc1)C(=O)CO2` | -57.83 | -10.33 | -2.85 |
| 29 | `COc1cccc(COc2nc(C(C)C)no2)c1` | -1.495 | -4.17 | -3.03 |
| 30 | `Cc1cc(C(=O)N2CC(O)CO2)c2ccc(C)c(C)c2n1` (stereo not drawn) | -0.2509 | 1.861 | -8.726 |
| 31 | `O=C(CCc1cn[nH]c1)N1C[C@H](CO)C[C@H](CN2CCOCC2)C1` | -5.914 | 4.228 | 3.086 |
| 32 | `CC(C)c1nc(C(=O)N2C[C@H](C(C)C)[C@@H](N)C2)cs1` | -11.11 | -1.394 | -4.024 |
| 33 | `N#Cc1cc(N2CCC(S(N)(=O)=O)CC2)c2ccccc2n1` | 6.052 | 3.446 | -2.948 |
| 34 | `O=C(NCCn1ccnc1)c1ccn(-c2cccc(F)c2)n1` | -41.04 | -0.2154 | 0.8347 |
| 35 | `N#Cc1cc(C#N)c(SCC(=O)NCc2ccc(F)cc2)nc1N` | -6.725 | -4.747 | 0.1148 |
| 36 | `CC(C)c1nc(CN2CCN(C(=O)CN3CCOCC3)CC2)no1` | -10.55 | 4.347 | -2.89 |
| 37 | `Cn1ccc(C(=O)N2CCN(c3nccs3)CC2)cc1=O` | -4.473 | 4.433 | 7.018 |
| 38 | `OC(c1ccccn1)C1CCN(Cc2cc3n(n2)CCNC3)CC1` (stereo not drawn) | 11.57 | 4.551 | -1.527 |
| 39 | `CCN(Cc1ccoc1)C(=O)c1cc(C)c(C)c(S(N)(=O)=O)c1` | -22.99 | 5.181 | -11.81 |
| 40 | `O=C1CCSCC(C(=O)N2CCCC2)N1` (stereo not drawn) | -6.587 | -0.7303 | -2.345 |
| 41 | `Cc1ccc(C)c2c(O)cc(CNCc3ccc(S(N)(=O)=O)cc3)nc12` | 3.892 | 6.325 | -1.474 |
| 42 | `Cc1nccc(-c2cccc(NCC(=O)N3CCOCC3)c2)n1` | -0.9092 | 1.217 | 2.999 |
| 43 | `Cc1noc(C)c1CN1C(=O)[C@H]2CC[C@@H]1CN(Cc1nccs1)C2` | -22.41 | -2.136 | 5.72 |
| 44 | `CN1CC(Nc2ccc(Br)cc2C#N)CCC1=O` (stereo not drawn) | -29.45 | 3.907 | 7.265 |
| 45 | `CN(C)c1ncccc1NC(=O)COC1CCCC1` | -4.8 | 1.076 | 1.217 |
| 46 | `Cc1cnn(C2CCCN(C(=O)c3sccc3-n3cnnn3)C2)c1` (stereo not drawn) | -1.286 | 2.602 | 0.5181 |
| 47 | `Cc1occc(=O)c1OCc1noc(C(=O)NCC2CC2)n1` | -4.853 | 5.128 | 0.9685 |
| 48 | `CCc1cnc(CNC(=O)N2CCCC(C(=O)NC)C2)s1` (stereo not drawn) | 2.385 | 6.782 | 2.848 |
| 49 | `O=C(c1ccc(Cl)cc1F)N1CCC(Cn2cc(CO)nn2)CC1` | -21.96 | 3.378 | 2.058 |
| 50 | `CNC(=O)[C@@H](c1ccccc1OC)N1CCC[C@H]1C(=O)N1CCC1` | -20.4 | 1.375 | 3.226 |
| 51 | `CNC(=O)c1sc2ccccc2c1CC1CCCCN1Cc1ncc[nH]1` (stereo not drawn) | 2.221 | 0.1992 | 4.731 |
| 52 | `Cc1cc(C(=O)N(C)Cc2ccoc2)c(NC(=O)C(C)(C)C)s1` | -24.34 | 0 | 2.163 |
| 53 | `Cn1cc(N2CC3(COCCN(Cc4ccccn4)C3)OCC2=O)cn1` (stereo not drawn) | -1.48 | 10.97 | 4.202 |
| 54 | `COc1ccc(CN2CC[C@@H]3[C@H]2CCC(=O)N3c2cnn(C)c2)cc1` | -48.33 | 0.3538 | 2.096 |
| 55 | `CNC(=O)[C@@]12CCO[C@@H]1CCN(S(=O)(=O)c1ccccc1C)C2` | 9.027 | 0.7788 | 3.585 |
| 56 | `Cn1cncc1CN1CCC2(CCCN2c2ncccn2)CC1` | -32.76 | 2.413 | 0 |
| 57 | `O=C(c1c(O)cnc2ccccc12)N1CCN(CC(F)F)CC1` | -6.973 | 1.07 | 3.883 |
| 58 | `CO[C@@H]1CN(c2ccccc2)S(=O)(=O)[C@@]12CCNC2` | -29.31 | -1.082 | 10.43 |
| 59 | `CC(C)(O)CSCCNCc1ccc(Cl)c2cccnc12` | -8.596 | -2.455 | -10.04 |
| 60 | `COCCC(C)NCc1ccccc1-n1ccnc1` (stereo not drawn) | -12.95 | 1.481 | 2.58 |
| 61 | `O=C(Cc1ccsc1)N1CCC2(CCCN(CC3CCOCC3)C2)C1` (stereo not drawn) | - | 2.607 | 7.477 |

3 of the entries, repeated:

compound,Pks13 thioesterase,PfKRS1,CoaBC
Cn1ccc(C(=O)N2CCN(c3nccs3)CC2)cc1=O,-4.473,4.433,7.018
O=C(COc1ccccc1)NCC1CC1,-4.148,-3.796,-1.339
Cc1cc(C(C)NC(=O)N2CCC(n3cncn3)CC2)c(C)s1 (stereo not drawn),-35.44,11.08,1.285